Drawing on the supplement of paper PMC10849652, this text covers log2 fold change for 33 targets.

The chains behind the UniProt entries cited, without tags or fusion partners. Where a name states a change or a piece, a line headed by the entry shows the natural chain unless it says otherwise.
UniProt P54886: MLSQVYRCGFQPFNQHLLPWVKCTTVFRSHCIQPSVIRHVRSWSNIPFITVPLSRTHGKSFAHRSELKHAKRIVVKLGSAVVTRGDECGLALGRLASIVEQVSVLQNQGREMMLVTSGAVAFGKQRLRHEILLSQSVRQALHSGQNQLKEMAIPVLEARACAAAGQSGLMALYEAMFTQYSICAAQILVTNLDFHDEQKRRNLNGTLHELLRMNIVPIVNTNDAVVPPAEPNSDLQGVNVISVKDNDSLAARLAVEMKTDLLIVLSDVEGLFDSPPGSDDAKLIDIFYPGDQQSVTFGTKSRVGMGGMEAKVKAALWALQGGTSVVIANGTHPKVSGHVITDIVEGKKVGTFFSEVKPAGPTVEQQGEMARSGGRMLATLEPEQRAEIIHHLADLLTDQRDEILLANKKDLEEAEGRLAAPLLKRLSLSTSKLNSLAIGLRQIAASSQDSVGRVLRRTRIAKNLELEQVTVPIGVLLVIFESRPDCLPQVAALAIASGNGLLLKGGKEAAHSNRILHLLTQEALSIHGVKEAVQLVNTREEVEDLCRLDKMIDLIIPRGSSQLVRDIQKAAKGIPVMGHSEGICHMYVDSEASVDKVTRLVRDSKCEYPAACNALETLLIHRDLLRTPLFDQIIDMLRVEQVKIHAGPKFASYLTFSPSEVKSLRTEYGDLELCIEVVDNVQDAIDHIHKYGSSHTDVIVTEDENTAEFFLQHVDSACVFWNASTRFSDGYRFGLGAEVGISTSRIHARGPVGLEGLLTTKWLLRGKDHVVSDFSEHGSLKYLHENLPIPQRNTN
UniProt Q6UB99: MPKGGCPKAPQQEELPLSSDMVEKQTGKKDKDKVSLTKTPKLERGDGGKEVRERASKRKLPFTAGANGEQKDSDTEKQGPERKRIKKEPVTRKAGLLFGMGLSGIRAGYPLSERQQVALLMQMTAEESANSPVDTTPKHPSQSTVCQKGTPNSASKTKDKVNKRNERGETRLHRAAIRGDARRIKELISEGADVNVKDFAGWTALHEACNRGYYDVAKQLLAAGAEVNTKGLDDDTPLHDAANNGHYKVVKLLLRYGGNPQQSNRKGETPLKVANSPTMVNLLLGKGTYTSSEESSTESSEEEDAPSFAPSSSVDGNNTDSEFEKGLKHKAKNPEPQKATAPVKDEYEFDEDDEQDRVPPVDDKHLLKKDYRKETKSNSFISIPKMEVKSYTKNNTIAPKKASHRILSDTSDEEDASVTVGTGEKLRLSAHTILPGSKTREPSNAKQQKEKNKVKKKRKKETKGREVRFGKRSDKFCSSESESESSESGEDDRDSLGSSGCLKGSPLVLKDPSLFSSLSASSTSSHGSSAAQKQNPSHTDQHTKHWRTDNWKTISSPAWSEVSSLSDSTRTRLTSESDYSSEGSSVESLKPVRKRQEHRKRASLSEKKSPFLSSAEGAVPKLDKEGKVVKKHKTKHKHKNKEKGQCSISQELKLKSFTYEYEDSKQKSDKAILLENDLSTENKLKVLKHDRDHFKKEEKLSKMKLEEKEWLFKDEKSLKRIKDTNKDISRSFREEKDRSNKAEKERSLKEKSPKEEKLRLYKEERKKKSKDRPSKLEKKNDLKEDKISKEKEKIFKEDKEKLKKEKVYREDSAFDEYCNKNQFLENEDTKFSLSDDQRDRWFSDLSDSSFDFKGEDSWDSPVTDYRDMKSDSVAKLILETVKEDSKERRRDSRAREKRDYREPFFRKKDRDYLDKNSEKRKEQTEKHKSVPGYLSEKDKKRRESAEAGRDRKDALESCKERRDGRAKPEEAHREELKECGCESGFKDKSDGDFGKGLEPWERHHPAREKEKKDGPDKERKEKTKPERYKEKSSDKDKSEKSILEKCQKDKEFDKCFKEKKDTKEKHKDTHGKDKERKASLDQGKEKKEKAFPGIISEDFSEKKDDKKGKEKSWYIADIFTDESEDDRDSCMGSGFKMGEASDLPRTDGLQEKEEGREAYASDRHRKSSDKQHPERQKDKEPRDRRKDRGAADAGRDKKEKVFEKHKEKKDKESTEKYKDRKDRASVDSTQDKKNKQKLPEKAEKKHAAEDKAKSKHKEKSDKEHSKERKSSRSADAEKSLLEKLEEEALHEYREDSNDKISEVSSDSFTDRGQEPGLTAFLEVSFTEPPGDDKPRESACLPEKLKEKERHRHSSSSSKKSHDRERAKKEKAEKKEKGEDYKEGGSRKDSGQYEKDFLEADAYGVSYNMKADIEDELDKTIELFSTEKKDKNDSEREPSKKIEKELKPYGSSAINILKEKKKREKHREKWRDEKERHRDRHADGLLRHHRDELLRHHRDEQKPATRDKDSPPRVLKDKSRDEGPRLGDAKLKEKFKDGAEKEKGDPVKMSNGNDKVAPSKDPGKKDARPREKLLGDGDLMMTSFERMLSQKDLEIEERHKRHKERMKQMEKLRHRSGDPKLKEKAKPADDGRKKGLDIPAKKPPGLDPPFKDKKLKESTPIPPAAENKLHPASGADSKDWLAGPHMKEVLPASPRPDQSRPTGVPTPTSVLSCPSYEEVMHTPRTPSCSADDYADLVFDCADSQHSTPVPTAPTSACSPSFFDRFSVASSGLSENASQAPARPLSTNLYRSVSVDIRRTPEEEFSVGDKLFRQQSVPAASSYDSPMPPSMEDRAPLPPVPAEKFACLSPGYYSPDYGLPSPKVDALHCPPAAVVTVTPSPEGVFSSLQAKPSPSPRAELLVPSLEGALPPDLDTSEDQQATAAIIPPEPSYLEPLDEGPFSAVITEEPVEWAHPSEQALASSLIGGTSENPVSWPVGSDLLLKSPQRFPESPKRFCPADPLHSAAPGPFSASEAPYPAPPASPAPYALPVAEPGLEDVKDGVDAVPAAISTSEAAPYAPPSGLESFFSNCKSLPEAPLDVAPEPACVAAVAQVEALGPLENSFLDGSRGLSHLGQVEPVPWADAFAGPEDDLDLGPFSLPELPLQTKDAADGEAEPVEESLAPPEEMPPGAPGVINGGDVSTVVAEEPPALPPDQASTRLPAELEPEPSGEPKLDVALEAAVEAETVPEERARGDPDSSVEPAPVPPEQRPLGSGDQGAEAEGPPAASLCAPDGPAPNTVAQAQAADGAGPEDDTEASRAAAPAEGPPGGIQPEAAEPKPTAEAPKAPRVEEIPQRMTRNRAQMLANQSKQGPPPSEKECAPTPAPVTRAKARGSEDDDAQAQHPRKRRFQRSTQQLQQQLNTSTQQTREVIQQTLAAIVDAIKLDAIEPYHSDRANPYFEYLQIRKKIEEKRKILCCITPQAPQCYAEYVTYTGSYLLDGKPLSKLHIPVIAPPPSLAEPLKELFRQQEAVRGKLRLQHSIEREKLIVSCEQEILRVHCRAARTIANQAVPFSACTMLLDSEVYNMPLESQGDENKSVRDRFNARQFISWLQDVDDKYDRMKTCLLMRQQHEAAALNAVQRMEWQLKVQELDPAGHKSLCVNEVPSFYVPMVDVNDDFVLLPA
UniProt Q86W74: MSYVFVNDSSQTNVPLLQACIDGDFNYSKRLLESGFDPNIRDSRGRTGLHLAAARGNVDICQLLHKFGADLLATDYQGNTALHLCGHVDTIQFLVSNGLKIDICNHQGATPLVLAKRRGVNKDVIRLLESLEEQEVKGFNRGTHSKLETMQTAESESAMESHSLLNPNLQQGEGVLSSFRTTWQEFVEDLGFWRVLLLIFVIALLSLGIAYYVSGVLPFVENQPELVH
UniProt Q13686: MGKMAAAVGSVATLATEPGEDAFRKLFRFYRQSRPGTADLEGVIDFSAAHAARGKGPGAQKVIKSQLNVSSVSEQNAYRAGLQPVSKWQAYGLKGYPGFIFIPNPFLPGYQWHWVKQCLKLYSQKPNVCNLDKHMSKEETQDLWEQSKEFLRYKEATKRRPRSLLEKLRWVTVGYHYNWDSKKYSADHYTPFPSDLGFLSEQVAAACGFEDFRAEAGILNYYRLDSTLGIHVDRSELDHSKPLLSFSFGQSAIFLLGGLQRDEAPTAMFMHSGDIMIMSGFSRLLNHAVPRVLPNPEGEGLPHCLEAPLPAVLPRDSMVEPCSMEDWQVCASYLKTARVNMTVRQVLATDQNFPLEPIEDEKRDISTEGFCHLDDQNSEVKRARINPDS
UniProt Q9BS18, whole entry, looked up: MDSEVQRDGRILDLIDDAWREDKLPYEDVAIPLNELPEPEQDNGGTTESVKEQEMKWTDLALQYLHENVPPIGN
UniProt P13196: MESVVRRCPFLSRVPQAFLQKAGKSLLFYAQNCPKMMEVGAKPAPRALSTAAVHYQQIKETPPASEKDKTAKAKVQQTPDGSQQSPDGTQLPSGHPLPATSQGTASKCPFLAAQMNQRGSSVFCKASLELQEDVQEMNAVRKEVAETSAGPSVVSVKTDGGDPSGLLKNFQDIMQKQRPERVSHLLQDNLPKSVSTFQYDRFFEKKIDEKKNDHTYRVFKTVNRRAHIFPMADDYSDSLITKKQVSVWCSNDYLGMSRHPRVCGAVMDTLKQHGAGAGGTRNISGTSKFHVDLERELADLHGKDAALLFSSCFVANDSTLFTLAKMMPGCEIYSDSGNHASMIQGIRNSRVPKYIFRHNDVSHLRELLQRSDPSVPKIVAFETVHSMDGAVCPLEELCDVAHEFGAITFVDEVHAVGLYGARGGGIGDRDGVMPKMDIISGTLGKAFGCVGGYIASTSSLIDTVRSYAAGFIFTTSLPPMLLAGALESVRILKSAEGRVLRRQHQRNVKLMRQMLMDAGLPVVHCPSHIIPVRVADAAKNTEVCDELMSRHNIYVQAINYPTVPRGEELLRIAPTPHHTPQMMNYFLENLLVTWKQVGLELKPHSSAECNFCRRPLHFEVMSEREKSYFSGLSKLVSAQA
UniProt Q4VCS5: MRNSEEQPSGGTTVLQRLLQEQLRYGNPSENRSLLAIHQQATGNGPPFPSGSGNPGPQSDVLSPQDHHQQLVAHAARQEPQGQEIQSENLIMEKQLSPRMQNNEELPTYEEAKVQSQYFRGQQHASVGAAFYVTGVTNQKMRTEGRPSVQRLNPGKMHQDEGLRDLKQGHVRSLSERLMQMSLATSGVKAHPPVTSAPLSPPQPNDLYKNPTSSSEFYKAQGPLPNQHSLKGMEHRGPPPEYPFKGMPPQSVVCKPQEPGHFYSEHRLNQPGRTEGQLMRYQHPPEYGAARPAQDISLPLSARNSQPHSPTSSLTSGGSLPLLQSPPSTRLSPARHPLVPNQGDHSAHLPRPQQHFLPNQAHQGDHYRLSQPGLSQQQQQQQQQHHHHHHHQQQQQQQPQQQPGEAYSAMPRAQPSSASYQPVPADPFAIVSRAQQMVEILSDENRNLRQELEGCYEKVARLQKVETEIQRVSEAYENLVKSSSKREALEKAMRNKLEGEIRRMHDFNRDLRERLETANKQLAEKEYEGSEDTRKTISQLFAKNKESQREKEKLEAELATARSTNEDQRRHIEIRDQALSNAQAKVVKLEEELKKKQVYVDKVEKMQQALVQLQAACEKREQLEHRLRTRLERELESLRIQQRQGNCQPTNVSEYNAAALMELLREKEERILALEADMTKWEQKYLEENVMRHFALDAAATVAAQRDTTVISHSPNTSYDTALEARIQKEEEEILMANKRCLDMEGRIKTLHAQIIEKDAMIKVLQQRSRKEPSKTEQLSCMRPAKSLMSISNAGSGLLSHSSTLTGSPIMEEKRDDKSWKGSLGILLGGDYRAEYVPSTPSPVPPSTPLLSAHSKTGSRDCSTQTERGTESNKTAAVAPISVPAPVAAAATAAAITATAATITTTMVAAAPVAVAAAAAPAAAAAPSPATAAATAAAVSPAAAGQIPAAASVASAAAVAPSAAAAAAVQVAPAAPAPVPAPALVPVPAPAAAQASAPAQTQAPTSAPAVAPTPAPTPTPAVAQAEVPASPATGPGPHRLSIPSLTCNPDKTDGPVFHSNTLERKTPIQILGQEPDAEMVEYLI
UniProt Q9BT30: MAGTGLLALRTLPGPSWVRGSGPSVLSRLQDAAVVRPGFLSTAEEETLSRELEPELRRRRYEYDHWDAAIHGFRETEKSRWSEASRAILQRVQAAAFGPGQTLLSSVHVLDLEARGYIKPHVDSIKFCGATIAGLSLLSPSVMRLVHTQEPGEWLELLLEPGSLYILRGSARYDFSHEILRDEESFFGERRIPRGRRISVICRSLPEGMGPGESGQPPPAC
UniProt P51648: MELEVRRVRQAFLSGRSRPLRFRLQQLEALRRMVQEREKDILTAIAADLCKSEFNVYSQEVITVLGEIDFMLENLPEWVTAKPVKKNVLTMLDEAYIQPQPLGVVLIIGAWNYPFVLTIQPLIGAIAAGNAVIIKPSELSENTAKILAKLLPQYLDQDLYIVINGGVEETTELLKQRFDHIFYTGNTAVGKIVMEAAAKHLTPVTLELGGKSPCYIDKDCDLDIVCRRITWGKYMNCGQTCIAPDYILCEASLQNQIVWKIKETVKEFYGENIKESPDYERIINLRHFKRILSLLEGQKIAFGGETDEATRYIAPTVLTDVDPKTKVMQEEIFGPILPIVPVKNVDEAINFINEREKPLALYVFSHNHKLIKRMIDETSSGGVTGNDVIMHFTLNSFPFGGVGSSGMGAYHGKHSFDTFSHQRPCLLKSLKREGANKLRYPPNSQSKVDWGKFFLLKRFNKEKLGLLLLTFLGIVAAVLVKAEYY

Some of the results follow.

Compound in the first experiment: CC1=C2C(=CC=C1)N=C(N(C2=O)C3=CC=CC=C3C)CN4C=NC5=C(N=CN=C54)N
The experiment in a line: log2 fold change, soluble protein after heating vs DMSO (PISA); higher = thermal stabilisation; K562 lysate, 10 uM; active = over 0.2 and 3.5 SD of the protein, either way, in both replicates (recomputed). The method, boiled down: (§1)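 To prepare the extract, K562 pellets were dounce-homogenised in PBS pH 7.4 with 1 mM MgCl2, giving crude material at 1 mg/mL protein. This was treated with 10 μM compound for 30 min, then heated in aliquots for 3 min over 48°C-58°C before pooling and addition of NP-40 to 0.5% at 4°C. Centrifugation at 21,000xg for 90 min left soluble protein in the supernatant, which TMTpro 16plex LC-MS/MS quantified with equalised channel sums. Results are log-two fold changes in thermal stability compared with solvent controls, from duplicates.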
ALDH18A1 isoform 2 (UniProt P54886): the log2 fold change is inactive: 0.229.

With AMBRA1 isoform 5 (UniProt Q9C0C7), the log2 fold change was inactive: -0.218.

For the target AMDHD2 (UniProt Q9Y303), the log2 fold change was inactive: 0.039.

ANKRD11 (UniProt Q6UB99): the log2 fold change was inactive: 0.091.

Regarding ANAPC16 (UniProt Q96DE5), the log2 fold change was inactive: 0.041.

For AMIGO2 (UniProt Q86SJ2), the log2 fold change was inactive: -0.216.

In the case of ANKH (UniProt Q9HCJ1), the log2 fold change was inactive: -0.078.

ALKBH6 isoform 2 (UniProt Q3KRA9): the log2 fold change is inactive: 0.038.

Turning to ANKRD46 (UniProt Q86W74), the log2 fold change is inactive: -0.291.

Consider AMFR (UniProt Q9UKV5), for which the log2 fold change is inactive: 0.048.

As to ALKBH1 (UniProt Q13686), the log2 fold change is inactive: -0.036.

On to ANAPC13 (UniProt Q9BS18), for which the log2 fold change was inactive: -0.269.

For the target AP3D1 isoform 2 (UniProt O14617), the log2 fold change was inactive: -0.009.

In the case of AMMECR1L (UniProt Q6DCA0), the log2 fold change was inactive: 0.089.

Compound in another experiment: Cc1sc2c(c1C)C(c1ccc(Cl)cc1)=N[C@@H](CC(=O)OC(C)(C)C)c1nnc(C)n1-2
The experiment is described as above. The procedure, abridged:
as §1
On to ANO9 (UniProt A1A5B4), for which the log2 fold change was inactive: 0.057.

With ANKRD39 (UniProt Q53RE8), the log2 fold change was inactive: 0.114.

As to ALDH18A1 isoform 2 (UniProt P54886), the log2 fold change was inactive: -0.068.

With ANXA2 (UniProt H0YL33), the log2 fold change is inactive: -0.135.

Consider AKR7L (UniProt Q8NHP1), for which the log2 fold change is inactive: -0.067.

For AMBRA1 isoform 5 (UniProt Q9C0C7), the log2 fold change is inactive: -0.146.

Turning to ANKRD11 (UniProt Q6UB99), the log2 fold change is inactive: 0.025.

In the case of ALAS1 (UniProt P13196), the log2 fold change is inactive: -0.08.

On to ANKRD30A (UniProt Q9BXX3), for which the log2 fold change was inactive: -0.03.

In the case of ANAPC16 (UniProt Q96DE5), the log2 fold change is inactive: 0.078.

In the case of AKTIP isoform 2 (UniProt Q9H8T0), the log2 fold change was inactive: 0.02.

For ALKBH6 isoform 2 (UniProt Q3KRA9), the log2 fold change was inactive: -0.034.

As to ANKRD46 (UniProt Q86W74), the log2 fold change was inactive: 0.049.

As to ANAPC15 isoform 2 (UniProt P60006), the log2 fold change was inactive: 0.396.

For the target ANKHD1 (UniProt D6RHC4), the log2 fold change is inactive: 0.099.

As to AMFR (UniProt Q9UKV5), the log2 fold change was inactive: 0.055.

Regarding AMOT (UniProt Q4VCS5), the log2 fold change is inactive: 0.025.

With ALKBH1 (UniProt Q13686), the log2 fold change was inactive: -0.001.

In the case of ALDH3A1 (UniProt P30838), the log2 fold change is inactive: -0.209.

Consider ANKRD16 (UniProt Q6P6B7), for which the log2 fold change was inactive: 0.004.

As for ANXA6 (UniProt E5RK69), the log2 fold change is inactive: -0.062.

Take ANK2 (UniProt Q01484): the log2 fold change was inactive: 0.047.

For the target ALG10B (UniProt Q5I7T1), the log2 fold change was inactive: 0.027.

Consider ALKBH7 (UniProt Q9BT30), for which the log2 fold change was inactive: -0.012.

As for ALDH3A2 isoform 2 (UniProt P51648), the log2 fold change was inactive: -0.419.

For ANKRD13B (UniProt Q86YJ7), the log2 fold change was inactive: 0.078.

As for ANKS6 isoform 4 (UniProt Q68DC2), the log2 fold change is inactive: -0.064.

With AMMECR1L (UniProt Q6DCA0), the log2 fold change is inactive: -0.044.
